Experimental data taken from PMC10682186.
No constants are given. Whether binding was seen depends on the method and setting. Binding seen in cells or lysates may run through a third protein. These calls come from enrichment with a bait or labelling near it, and not all partners need be listed.

Protein sequences, listed by entry. Tags and fused reporters are not part of them.
UniProt P97496: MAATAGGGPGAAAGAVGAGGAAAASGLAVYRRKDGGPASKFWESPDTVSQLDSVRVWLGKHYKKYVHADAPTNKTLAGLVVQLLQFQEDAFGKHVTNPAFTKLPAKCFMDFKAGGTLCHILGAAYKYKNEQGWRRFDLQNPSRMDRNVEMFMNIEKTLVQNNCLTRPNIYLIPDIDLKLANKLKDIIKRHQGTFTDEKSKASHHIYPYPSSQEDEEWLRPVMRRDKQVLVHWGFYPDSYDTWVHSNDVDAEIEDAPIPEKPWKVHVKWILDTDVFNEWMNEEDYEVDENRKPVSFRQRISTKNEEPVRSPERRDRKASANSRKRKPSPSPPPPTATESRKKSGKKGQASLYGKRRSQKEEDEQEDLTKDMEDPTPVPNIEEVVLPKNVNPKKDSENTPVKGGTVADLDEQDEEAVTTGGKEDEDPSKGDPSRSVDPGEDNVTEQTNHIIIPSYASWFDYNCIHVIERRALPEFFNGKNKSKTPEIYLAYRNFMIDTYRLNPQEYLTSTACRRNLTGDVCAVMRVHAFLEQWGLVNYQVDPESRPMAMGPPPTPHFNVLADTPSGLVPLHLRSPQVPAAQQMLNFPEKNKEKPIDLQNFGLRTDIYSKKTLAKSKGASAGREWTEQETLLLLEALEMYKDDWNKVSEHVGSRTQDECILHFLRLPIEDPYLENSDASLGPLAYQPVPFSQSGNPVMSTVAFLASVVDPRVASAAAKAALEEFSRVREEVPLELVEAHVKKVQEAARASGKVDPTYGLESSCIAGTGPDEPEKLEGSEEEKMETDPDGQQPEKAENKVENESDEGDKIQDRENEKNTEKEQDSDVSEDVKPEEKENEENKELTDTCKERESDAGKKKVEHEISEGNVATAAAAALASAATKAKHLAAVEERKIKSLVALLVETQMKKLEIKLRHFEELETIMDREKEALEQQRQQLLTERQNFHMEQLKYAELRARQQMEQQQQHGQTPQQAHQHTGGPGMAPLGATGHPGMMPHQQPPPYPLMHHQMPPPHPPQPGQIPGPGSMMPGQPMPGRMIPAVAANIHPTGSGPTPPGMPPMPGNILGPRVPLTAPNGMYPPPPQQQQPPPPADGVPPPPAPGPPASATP
UniProt Q8BSQ9: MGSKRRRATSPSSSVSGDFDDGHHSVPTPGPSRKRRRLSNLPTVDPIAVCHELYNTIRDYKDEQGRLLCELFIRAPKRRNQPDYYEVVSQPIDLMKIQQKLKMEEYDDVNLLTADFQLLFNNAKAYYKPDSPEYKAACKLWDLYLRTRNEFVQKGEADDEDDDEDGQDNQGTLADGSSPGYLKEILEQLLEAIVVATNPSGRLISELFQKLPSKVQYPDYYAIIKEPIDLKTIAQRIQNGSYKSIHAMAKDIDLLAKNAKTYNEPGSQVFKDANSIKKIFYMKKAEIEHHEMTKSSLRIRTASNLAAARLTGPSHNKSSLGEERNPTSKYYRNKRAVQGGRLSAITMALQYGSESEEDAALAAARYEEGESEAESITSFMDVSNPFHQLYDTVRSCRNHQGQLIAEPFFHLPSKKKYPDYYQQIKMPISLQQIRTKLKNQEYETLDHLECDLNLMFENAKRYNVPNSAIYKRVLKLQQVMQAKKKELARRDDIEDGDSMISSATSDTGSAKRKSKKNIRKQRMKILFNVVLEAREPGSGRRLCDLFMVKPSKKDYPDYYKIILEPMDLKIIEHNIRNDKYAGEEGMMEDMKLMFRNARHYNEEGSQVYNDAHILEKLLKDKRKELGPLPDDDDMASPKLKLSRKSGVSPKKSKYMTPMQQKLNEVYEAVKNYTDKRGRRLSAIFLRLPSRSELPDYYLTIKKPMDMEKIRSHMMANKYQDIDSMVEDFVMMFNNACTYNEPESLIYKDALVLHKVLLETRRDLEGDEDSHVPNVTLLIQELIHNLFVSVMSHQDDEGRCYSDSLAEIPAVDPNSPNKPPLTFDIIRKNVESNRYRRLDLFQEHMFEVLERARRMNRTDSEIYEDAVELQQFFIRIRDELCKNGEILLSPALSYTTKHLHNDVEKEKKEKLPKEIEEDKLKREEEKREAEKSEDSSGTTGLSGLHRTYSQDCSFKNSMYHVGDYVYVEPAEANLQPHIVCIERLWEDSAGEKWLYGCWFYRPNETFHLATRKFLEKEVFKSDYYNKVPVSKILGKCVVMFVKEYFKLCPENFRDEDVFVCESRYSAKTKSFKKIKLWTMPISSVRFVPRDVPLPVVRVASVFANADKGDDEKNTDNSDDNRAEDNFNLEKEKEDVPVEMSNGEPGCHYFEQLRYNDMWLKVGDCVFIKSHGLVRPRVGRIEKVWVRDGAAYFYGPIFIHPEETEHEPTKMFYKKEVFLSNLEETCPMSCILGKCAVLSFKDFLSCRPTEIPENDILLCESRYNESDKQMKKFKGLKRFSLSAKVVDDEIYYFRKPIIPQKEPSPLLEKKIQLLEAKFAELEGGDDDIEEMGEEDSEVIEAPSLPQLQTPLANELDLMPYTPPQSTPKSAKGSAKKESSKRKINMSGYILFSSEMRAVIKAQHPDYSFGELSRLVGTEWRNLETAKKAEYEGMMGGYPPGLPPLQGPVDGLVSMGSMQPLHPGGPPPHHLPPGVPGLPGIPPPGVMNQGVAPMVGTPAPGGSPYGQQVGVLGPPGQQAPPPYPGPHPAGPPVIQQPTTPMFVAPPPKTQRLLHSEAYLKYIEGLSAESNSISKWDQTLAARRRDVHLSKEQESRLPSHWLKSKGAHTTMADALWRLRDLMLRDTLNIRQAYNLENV
UniProt O54941: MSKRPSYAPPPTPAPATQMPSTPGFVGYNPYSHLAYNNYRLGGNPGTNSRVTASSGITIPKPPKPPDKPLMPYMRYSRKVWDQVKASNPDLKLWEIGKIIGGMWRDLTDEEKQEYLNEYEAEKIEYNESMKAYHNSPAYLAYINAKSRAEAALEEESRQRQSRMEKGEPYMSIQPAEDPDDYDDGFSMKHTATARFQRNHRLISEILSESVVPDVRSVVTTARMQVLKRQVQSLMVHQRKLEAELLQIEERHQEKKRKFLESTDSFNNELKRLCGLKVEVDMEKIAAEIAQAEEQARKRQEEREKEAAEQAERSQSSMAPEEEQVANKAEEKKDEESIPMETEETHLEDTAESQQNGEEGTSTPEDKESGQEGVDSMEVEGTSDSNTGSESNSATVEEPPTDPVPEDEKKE
UniProt Q3TKT4: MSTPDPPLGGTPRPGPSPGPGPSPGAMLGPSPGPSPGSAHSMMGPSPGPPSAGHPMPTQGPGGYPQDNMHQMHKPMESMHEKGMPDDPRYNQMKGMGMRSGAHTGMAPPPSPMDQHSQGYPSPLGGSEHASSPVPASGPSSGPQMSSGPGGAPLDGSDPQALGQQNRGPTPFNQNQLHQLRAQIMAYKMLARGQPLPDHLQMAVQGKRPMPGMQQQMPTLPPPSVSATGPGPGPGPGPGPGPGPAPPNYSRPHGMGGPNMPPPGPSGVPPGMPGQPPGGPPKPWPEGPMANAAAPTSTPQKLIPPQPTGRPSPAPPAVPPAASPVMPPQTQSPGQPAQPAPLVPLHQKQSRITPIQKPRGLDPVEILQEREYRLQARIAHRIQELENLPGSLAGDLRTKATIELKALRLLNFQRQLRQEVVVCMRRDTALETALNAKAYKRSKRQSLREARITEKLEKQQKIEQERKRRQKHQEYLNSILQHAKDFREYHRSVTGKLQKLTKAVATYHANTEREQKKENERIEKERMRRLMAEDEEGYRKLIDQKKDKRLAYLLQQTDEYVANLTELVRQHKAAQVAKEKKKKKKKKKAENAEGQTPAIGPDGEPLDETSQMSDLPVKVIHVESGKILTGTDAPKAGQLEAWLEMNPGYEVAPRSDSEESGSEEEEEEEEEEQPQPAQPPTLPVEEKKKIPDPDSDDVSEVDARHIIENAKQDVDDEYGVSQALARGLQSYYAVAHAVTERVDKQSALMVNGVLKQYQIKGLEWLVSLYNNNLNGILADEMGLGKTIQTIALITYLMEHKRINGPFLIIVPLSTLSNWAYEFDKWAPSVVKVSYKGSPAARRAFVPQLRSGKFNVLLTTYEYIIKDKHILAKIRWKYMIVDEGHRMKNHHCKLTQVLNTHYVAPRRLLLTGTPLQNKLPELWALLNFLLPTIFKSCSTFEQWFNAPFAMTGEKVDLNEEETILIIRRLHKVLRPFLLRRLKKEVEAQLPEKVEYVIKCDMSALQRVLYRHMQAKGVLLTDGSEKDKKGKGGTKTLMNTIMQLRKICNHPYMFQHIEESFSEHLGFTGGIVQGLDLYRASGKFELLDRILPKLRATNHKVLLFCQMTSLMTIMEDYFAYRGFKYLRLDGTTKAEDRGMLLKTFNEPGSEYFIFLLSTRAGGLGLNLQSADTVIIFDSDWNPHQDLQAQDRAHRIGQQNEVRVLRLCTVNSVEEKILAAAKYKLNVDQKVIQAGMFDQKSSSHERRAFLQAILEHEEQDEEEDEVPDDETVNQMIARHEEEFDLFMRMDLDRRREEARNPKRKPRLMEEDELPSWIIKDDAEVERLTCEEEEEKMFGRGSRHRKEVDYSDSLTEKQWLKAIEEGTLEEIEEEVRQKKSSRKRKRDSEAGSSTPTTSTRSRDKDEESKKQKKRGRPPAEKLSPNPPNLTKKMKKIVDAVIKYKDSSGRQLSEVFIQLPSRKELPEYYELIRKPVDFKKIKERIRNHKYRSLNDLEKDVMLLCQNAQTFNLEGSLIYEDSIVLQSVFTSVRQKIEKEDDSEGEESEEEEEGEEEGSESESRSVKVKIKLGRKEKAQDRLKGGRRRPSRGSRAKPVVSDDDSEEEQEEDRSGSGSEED

Biological target: T1, PHF10A isoform of PHF10 (mouse (endogenous in brain)) (UniProt Q9D8M7)
T1 sequence: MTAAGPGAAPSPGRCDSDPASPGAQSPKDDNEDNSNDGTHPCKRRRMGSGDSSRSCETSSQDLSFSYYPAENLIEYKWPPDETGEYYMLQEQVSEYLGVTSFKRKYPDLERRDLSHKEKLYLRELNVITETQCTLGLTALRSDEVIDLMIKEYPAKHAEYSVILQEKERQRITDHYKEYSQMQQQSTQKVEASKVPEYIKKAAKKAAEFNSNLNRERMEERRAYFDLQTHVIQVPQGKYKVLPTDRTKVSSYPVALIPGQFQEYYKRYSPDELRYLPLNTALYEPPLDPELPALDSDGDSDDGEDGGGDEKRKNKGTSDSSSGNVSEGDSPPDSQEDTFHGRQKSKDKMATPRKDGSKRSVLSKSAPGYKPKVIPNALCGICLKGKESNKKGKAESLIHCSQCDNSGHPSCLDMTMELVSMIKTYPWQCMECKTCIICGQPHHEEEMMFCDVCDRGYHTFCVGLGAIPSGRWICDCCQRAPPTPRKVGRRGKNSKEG
Assay: affinity purification with mass spectrometry; P1 and P56 mouse brain nuclear extracts fractionated on MonoS (high-salt PBAF or low-salt dcPBAF fractions) and Superose 6; immobilised anti-PHF10 antibodies; loaded in HEMG-150 with 0.1% NP-40, washed with HEMG-1000 (1 M NaCl) with 0.1% NP-40, eluted with 0.1 M glycine pH 2.5; SDS-PAGE bands identified by MALDI-TOF MS

binding	Substance
binds	BAF155 (from UniProt P97496 1-1104)
binds	BAF180/PBRM1 (from UniProt Q8BSQ9 1-1634)
binds	BAF60 (mouse (endogenous in brain))
binds	BAF57 (from UniProt O54941 1-411)
binds	BRG1 (from UniProt Q3TKT4 1-1613)
